{"source": "patent US20080139664A1", "about": "“ANTI-GLYCATION AGENTS FOR PREVENTING AGE-, DIABETES-, AND SMOKING-RELATED COMPLICATIONS” (NATIONAL RESEARCH COUNCIL OF CANADA, priority 2001, published 2008)", "key": {"[1]": {"system": "bovine serum albumin (BSA)"}, "lysozyme": {"system": "lysozyme", "test": "ESI-MS of lysozyme glycoforms after incubation with D-ribose;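 also: lysozyme incubated with D-ribose, with or without anti-glycation agents, then separated by reversed-phase HPLC and analysed by electrospray mass spectrometry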", "settings": "37° C., 5 days"}}, "note": "pIC50: −log10 of the molar value.", "data": [{"molecule": "O=C1OCCN1/N=C/c1ccc([N+](=O)[O-])o1", "note": "[Furazolidone]", "values": [{"measurement": "pIC50", "setting": "[1]", "result": 4.48}, {"measurement": "maximum percentage of the inhibition", "setting": "[1]", "result": 38, "unit": "%)"}, {"measurement": "Peak area as % of total area of all glycoforms, 14,569", "setting": "lysozyme; lysozyme + 2D-ribose − 2H2O (14,569 Da)", "result": 4.6, "unit": "%"}, {"measurement": "Peak area as % of total area of all glycoforms, 14,551", "setting": "lysozyme; lysozyme + 2D-ribose − 3H2O (14,551 Da)", "result": 3.1, "unit": "%"}, {"measurement": "Peak area as % of total area of all glycoforms, 14,533", "setting": "lysozyme; lysozyme + 2D-ribose − 5H2O (14,533 Da)", "result": 1.7, "unit": "%"}, {"measurement": "Peak area as % of total area of all glycoforms, 14,515", "setting": "lysozyme; lysozyme + 2D-ribose − 6H2O (14,515 Da)", "result": 0.9, "unit": "%"}, {"measurement": "Peak area as % of total area of all glycoforms, 14,419", "setting": "lysozyme; lysozyme + D-ribose − 2H2O (14,419 Da)", "result": 6.6, "unit": "%"}, {"measurement": "Peak area as % of total area of all glycoforms, 14,401", "setting": "lysozyme; lysozyme + D-ribose − 3H2O (14,401 Da)", "result": 0.0, "unit": "%"}, {"measurement": "Peak area as % of total area of all glycoforms, 14,437", "setting": "lysozyme; lysozyme + D-ribose − H2O (14,437 Da)", "result": 22.7, "unit": "%"}, {"measurement": "Peak area as % of total area of all glycoforms, 14,496", "setting": "lysozyme; lysozyme + D-ribose − H2O with one carboxymethylated Lys residue (14,496 Da)", "result": 0.0, "unit": "%"}, {"measurement": "Peak area as % of total area of all glycoforms, 14,364", "setting": "lysozyme; lysozyme with one carboxymethylated Lys residue (14,364 Da)", "result": 2.2, "unit": "%"}, {"measurement": "Peak area as % of total area of all glycoforms, 14,305", "setting": "lysozyme; unmodified lysozyme (14,305 Da)", "result": 56.8, "unit": "%"}]}]}
